Reference: the supplement of paper PMC3334620
In all, about 33,000 sequences were measured (“E-score (-0.5 to 0.5)”: median about -0.015, highest 2% from about 0.3 on). The list shows a part of the results.

Molecular target: T1, Abf1 (UniProt P14164)
T1 sequence: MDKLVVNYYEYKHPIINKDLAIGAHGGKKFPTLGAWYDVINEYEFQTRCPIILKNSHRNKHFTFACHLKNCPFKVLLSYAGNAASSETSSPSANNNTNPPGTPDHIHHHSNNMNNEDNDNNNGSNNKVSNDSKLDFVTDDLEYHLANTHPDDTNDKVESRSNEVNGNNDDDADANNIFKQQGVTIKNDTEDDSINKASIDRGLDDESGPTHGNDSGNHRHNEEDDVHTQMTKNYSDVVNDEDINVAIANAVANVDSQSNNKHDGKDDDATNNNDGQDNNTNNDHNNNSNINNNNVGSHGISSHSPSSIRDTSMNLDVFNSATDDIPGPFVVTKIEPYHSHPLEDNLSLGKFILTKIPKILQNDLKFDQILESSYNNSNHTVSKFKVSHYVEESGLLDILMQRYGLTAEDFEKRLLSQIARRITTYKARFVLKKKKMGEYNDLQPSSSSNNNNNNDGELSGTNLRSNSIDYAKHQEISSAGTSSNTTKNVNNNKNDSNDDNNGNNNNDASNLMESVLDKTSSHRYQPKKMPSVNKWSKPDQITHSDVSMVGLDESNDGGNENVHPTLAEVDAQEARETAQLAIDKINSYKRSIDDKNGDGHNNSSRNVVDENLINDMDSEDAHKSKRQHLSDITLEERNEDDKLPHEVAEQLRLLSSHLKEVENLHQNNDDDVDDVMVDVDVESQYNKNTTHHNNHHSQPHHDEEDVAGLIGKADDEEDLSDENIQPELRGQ
Test: PBM E-score (8-mer binding enrichment) (E-score (-0.5 to 0.5)); higher = stronger / more preferred TF binding
Conditions: protein concentration: 200 nM; construct: GST-full length
How it was run: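 Universal all-10-mer Agilent arrays, fresh or stripped once, were converted to double-stranded form by primer extension. GST-tagged yeast transcription factors from PURExpress in vitro transcription/translation, full-length or DNA-binding domain only, were applied at about 100-200 nM and detected with fluorescent anti-GST. After masliner normalisation, the Universal PBM Analysis Suite scored each ungapped eight-base word together with its reverse complement by E-score.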

| Sequence | PBM E-score |
| --- | --- |
| CCTACGAA | 0.253 |
| ATTGATGG | -0.0326 |
| CGACGGAG | 0.167 |
| CACCGGTG | -0.0266 |
| CTTGTGTA | 0.0304 |
| CCGAAAGA | -0.124 |
| CGCATCGC | 0.0612 |
| GAATCTCC | -0.171 |
| CCCTTCTC | -0.326 |
| ACCTCCTC | -0.0917 |
| CTGGCTCA | -0.0243 |
| CGTGGGAC | 0.133 |
| TCGAACAA | 0.177 |
| AATATAGG | 0.175 |
| GAATTGAC | 0.051 |
| ATGCCTTG | -0.0634 |
| CCAGGGCG | -0.116 |
| CTCCACGA | 0.241 |
| ACATCTGG | -0.0043 |
| GAAGGAGC | -0.324 |
| GCCCCACA | -0.232 |
| AAAGAGCG | -0.155 |
| AACAAGCC | -0.114 |
| GCTATTCC | -0.294 |
| CGTCCTTA | 0.108 |

| Sequence | PBM E-score |
| --- | --- |
| GCGGGTCC | -0.227 |
| CGCGCTCC | -0.0773 |
| AACTCCGG | -0.0722 |
| GAGTGCTA | 0.0135 |
| ATCTATAG | 0.0263 |
| CTGATCCA | 0.0639 |
| ACATCAAG | 0.0995 |
| TGAACCAA | 0.0858 |
| AAATCAAA | -0.0497 |
| ATCGCTAC | 0.0926 |
| AGTTACCG | 0.0874 |
| ACGGTATG | 0.221 |
| AGTTTGTC | 0.124 |
| CATATTCG | 0.132 |
| GTAGACAA | 0.162 |
| GCGTATAA | 0.154 |
| CTGCCAGC | -0.111 |
| CCAGAGTA | -0.132 |
| ACTGCAAG | -0.0535 |
| TCTTAGAA | 0.0979 |
| CACTTATA | 0.145 |
| GGAGAGTA | 0.0316 |
| ACTTTTGA | 0.0196 |
| ACCATCGC | 0.128 |
| ACACACTG | -0.0954 |

Reprinted at random: 5 entries already listed.

| Sequence | PBM E-score |
| --- | --- |
| ACACACTG | -0.0954 |
| TCTTAGAA | 0.0979 |
| CGCGCTCC | -0.0773 |
| CTGCCAGC | -0.111 |
| CTGATCCA | 0.0639 |

(further entries)

| Sequence | PBM E-score |
| --- | --- |
| CGACTTCA | 0.0956 |
| ACAATACG | 0.0997 |
| CCCAACCG | -0.0379 |
| AGGATTGG | -0.0614 |
| AGAAGCAA | -0.0204 |
| AACCGCTC | -0.0425 |
| AGAGATCG | -0.0883 |
| CACAAGTA | -0.117 |
| CATGTAAG | -0.112 |
| CTAAGGCC | -0.0311 |
| AATCCACT | 0.0105 |
| GCCTCGCA | -0.0633 |
| ACGTGTCT | 0.194 |
| CCGAGGAA | -0.149 |
| AGACAACG | -0.0418 |
| CGGATGAG | -0.0476 |
| ACGGTAGA | 0.0612 |
| AAAAGAGA | 0.126 |
| AATTATAC | 0.175 |
| ACCCATCG | -0.073 |
| CCTACACA | -0.0995 |
| ATGCCGGG | -0.169 |
| ATGAGCAG | 0.0855 |
| ACTTTGCG | -0.0468 |
| ACCATCCG | -0.189 |

| Sequence | PBM E-score |
| --- | --- |
| TCAGCTGA | 0.0671 |
| AACATCCG | -0.0506 |
| AACTTTGC | -0.125 |
| CGAGTTTA | -0.0636 |
| GTTGCTTA | 0.0506 |
| CCAAATTA | 0.0834 |
| AAACCGAA | -0.0436 |
| CCCTAACG | 0.0374 |
| CCACTTTA | -0.135 |
| GCGTGTTA | 0.0149 |
| CAATGACC | 0.0736 |
| GCGTGATA | 0.353 |
| CTGAGGTA | -0.0312 |
| ACACATAT | 0.0254 |
| CACTAAGG | 0.0132 |
| ACAGTGCA | -0.0665 |
| CACGGATA | 0.285 |
| ACTTCATA | 0.0634 |
| AATAGCCG | -0.0728 |
| AAAGTGCC | -0.148 |
| GCTATTGA | -0.0794 |
| CATTGTTC | -0.0255 |
| CGGATTGC | -0.00018 |
| AGCGCAAC | -0.0267 |
| CACTTCAC | -0.0873 |

Shown bar-delimited: part of the list above.
Sequence | PBM E-score
AGAAGCAA | -0.0204
AACCGCTC | -0.0425
AGAGATCG | -0.0883
CACAAGTA | -0.117
CATGTAAG | -0.112
CTAAGGCC | -0.0311
AATCCACT | 0.0105
GCCTCGCA | -0.0633
ACGTGTCT | 0.194
CCGAGGAA | -0.149
AGACAACG | -0.0418
CGGATGAG | -0.0476
ACGGTAGA | 0.0612
AAAAGAGA | 0.126
AATTATAC | 0.175
ACCCATCG | -0.073
CCTACACA | -0.0995
ATGCCGGG | -0.169
ATGAGCAG | 0.0855
ACTTTGCG | -0.0468
ACCATCCG | -0.189
TCAGCTGA | 0.0671
AACATCCG | -0.0506
AACTTTGC | -0.125
CGAGTTTA | -0.0636
GTTGCTTA | 0.0506
CCAAATTA | 0.0834
AAACCGAA | -0.0436
CCCTAACG | 0.0374
CCACTTTA | -0.135
GCGTGTTA | 0.0149
CAATGACC | 0.0736
GCGTGATA | 0.353
CTGAGGTA | -0.0312
ACACATAT | 0.0254
CACTAAGG | 0.0132
ACAGTGCA | -0.0665
CACGGATA | 0.285
ACTTCATA | 0.0634
AATAGCCG | -0.0728
AAAGTGCC | -0.148
GCTATTGA | -0.0794
CATTGTTC | -0.0255
CGGATTGC | -0.00018

More records.

| Sequence | PBM E-score |
| --- | --- |
| TCAAACAA | -0.127 |
| ATGTTCTG | 0.093 |
| CCATTCCG | -0.126 |
| AAGTCAAG | -0.206 |
| CTTTGAAC | 0.00842 |
| GCATTAGC | -0.038 |
| CGGTCGAA | -0.0367 |
| CAGTCTGA | 0.0216 |
| ATTCTCCC | -0.0116 |
| GGACCTCC | -0.116 |
| AATAAGGC | -0.0637 |
| GAGAAATA | 0.211 |
| ATCCAGAA | 0.0109 |
| ATCGCCTA | -0.00103 |
| GGGTACCA | -0.168 |
| ACAGAGTA | -0.0897 |
| ATTAAGAA | 0.233 |
| CCGTATAA | 0.418 |
| CCGGGGGC | -0.286 |
| ACAGAGCT | -0.118 |
| CAGTCAGA | 0.00787 |
| TACCTTAA | 0.105 |
| GACTATAC | 0.111 |
| ACGTTTTA | 0.208 |
| CCCGTTTA | 0.233 |

| Sequence | PBM E-score |
| --- | --- |
| CACCCCAA | 0.104 |
| ACAAATAG | 0.157 |
| AAATCGTT | 0.239 |
| CCCTGCCA | -0.119 |
| CCAGGCAG | -0.25 |
| AATACACT | 0.0678 |
| GCCTTTAC | -0.0351 |
| GGTATTGA | 0.00996 |
| AGTGCTTA | -0.167 |
| CTTGCCAC | 0.0137 |
| GTTGGGCA | 0.0171 |
| AGTGGGCC | -0.21 |
| GGTCTATA | -0.0673 |
| CTCCTATC | 0.0243 |
| ATGCGGGA | -0.12 |
| ATTTTAAA | 0.182 |
| GTGTAAAA | 0.161 |
| AAGTAGGT | -0.0305 |
| ACATCCTA | 0.0617 |
| CAAGGCTA | 0.0473 |
| CTCGCGCC | -0.141 |
| AGCGACTA | 0.0386 |
| GTGCGTGA | 0.172 |
| AATGCGTA | 0.125 |
| ACTCTTTA | 0.0112 |

| Sequence | PBM E-score |
| --- | --- |
| CCAGCGAC | 0.0401 |
| AAAAGACC | -0.234 |
| CATGCAAC | 0.0643 |
| AGTATAGG | -0.0938 |
| CTAATAAC | 0.219 |
| ATGCCGCC | -0.0724 |
| CTTGCATC | -0.267 |
| ATCGTCGG | 0.218 |
| ACTCGTTC | 0.00912 |
| ACTGCGTC | -0.114 |
| CTTGCGAA | 0.145 |
| ACGGAAAT | 0.276 |
| GAACGCAA | 0.0976 |
| ACCCAGGT | -0.268 |
| AACAAAAA | 0.153 |
| AGGTTAGG | -0.0491 |
| GCGAGTCA | 0.0147 |
| CGCAACTC | -0.115 |
| TAGCACCA | -0.111 |
| ATCACGCG | 0.373 |
| AAGGGCCC | -0.291 |
| AAAAGGTG | 0.0493 |
